Patent US20140323341A1, “SYSTEMS AND METHODS FOR ASSESSMENT OF BIOSIMILARITY” (ATTAGENE, INC., priority 2011, published 2014)

Test system: NR activity in HepG2 cells
Conditions: 0.1 mM, 24 hours, 46 transcription factors; for r. correlation between organotins' TF signatures, vs ACT: Pearson correlation with ACT signature; for r. correlation between organotins' TF signatures, vs Cyh: Pearson correlation with Cyh signature; for r. correlation between organotins' TF signatures, vs TBT: Pearson correlation with TBT signature; for r. correlation between organotins' TF signatures, vs TPT: Pearson correlation with TPT signature

| SMILES | r. correlation between organotins' TF signatures, vs ACT | r. correlation between organotins' TF signatures, vs Cyh | r. correlation between organotins' TF signatures, vs TBT | r. correlation between organotins' TF signatures, vs TPT |
| --- | --- | --- | --- | --- |
| [OH][Sn]([CH]1CCCCC1)([CH]1CCCCC1)[CH]1CCCCC1 [Cyh, cyhexatin] | 0.95 | 1 | 0.93 | 0.95 |
| c1nc[n]([Sn]([CH]2CCCCC2)([CH]2CCCCC2)[CH]2CCCCC2)n1 [ACT, azocyclotin] | 1 | 0.95 | 0.95 | 0.97 |
